The results in this text go back to publication PMC7819943, “Rice protein-binding microarrays: a tool to detect cis-acting elements near promoter regions in rice”.

The chains behind the UniProt entries cited, without tags or fusion partners.
UniProt Q0JBA9, entry or part of it: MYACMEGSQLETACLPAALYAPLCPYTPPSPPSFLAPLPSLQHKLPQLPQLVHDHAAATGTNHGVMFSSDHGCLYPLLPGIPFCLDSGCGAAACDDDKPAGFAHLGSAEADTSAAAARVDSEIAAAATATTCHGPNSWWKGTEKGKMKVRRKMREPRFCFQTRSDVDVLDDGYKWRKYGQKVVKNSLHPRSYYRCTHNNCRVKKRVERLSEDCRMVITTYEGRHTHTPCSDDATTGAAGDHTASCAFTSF

The other results are listed elsewhere or left out.

This test concerns the target OsWRKY34 (Oryza sativa, UniProt Q0JBA9 1-250). In words: protein-binding microarray (RPBM); PBS, 2% BSA, 51.3 ng/ul salmon testes DNA, 50 uM zinc acetate, 200 nM TF, 25 C, 1 h; high values mean tight binding. As to conditions: protein: recombinant; tags: N-terminal polyhistidine and DsRed monomer fusion (pET32a); label: CyDye5-dUTP incorporated in the synthesized complementary strand; 3' TTTTT single-stranded linker to array surface; dsDNA, one strand shown. A digest of the protocol: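 Transcription factors were made in E. coli BL21-CodonPlus as N-terminal fusions to a polyhistidine tag and DsRed, then purified on Ni–NTA. After primer extension with Cy5-dUTP and blocking with 2% BSA, a custom Agilent array was exposed for 1 h at 25 °C to 200 nM protein in PBS, 2% BSA, salmon testes DNA and 50 µM zinc acetate. Washed arrays were scanned on an Axon 4000B, and the binding signal is per-feature fluorescence intensity in arbitrary units.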
“AGTTCCTAATATTTCTCAATGTATATATGTACTCATTCCTCGGAGTCACCTAGTGCAG”: the binding signal is 9150 fluorescence intensity (a.u.).

For “CGTGCTTATATAGAGGCATCTGGGGAATTAGGGTTTGACTCGGAGTCACCTAGTGCAG”, the binding signal is 8860 fluorescence intensity (a.u.). “TTCTCATGTAATATCCGTCTTTTCGAAGAGCCTTTACGTACGGAGTCACCTAGTGCAG”: the binding signal is 8710 fluorescence intensity (a.u.). “ACTACTGTTGATGTGTGTGTTACTATGTAATTCTTGTGTTCGGAGTCACCTAGTGCAG”: the binding signal is 8670 fluorescence intensity (a.u.). Take “TCATCCGTGTATCAGTCGGTTTTTAAGTTCATTTCCTTTTCGGAGTCACCTAGTGCAG”: the binding signal was 13500 fluorescence intensity (a.u.).

Take “GTGGTGGTCGTAGAGGACGGCTATGGCGGGCGGGGACATCCGGAGTCACCTAGTGCAG”: the binding signal was 8410 fluorescence intensity (a.u.). With “CCGATCTATATGGGAGTTCCTGCAGTTAGTGTTCTTGAACCGGAGTCACCTAGTGCAG” the figure was 8790 fluorescence intensity (a.u.); with “GGGCCGTTAGATCTTTTCAGTCTCCTTATATACCCAACCACGGAGTCACCTAGTGCAG”, 9010 fluorescence intensity (a.u.).

Take “GTCCGATCCTACTCTCGCGCCACATCGGACGGCCACGATCCGGAGTCACCTAGTGCAG”: the binding signal was 9900 fluorescence intensity (a.u.). With “TCCTCTTCCTTTCTTGGTCTTTGAGGGGATAAAATTCAAGCGGAGTCACCTAGTGCAG” the figure was 13400 fluorescence intensity (a.u.); with “TGTTGTTGTTTTGTGATTTCTTGCTCTGCTATCGCTCGACCGGAGTCACCTAGTGCAG”, 8510 fluorescence intensity (a.u.). With “GCCGCCGCCGCCGCCGCGCGCCACCACCGCCGCAACCATGCGGAGTCACCTAGTGCAG” the figure was 8480 fluorescence intensity (a.u.); with “TCCATGCTTCGGGTGACGTCCTCTTGATCCAAGAACTCGTCGGAGTCACCTAGTGCAG”, 8170 fluorescence intensity (a.u.). For “CGCCGTCGCCCACCTCCTCAGCTCGCACCGCAACCTCGCCCGGAGTCACCTAGTGCAG”, the binding signal is 10600 fluorescence intensity (a.u.). Under “GCTTTATATGGGCCGGCACCTGATGGGCCTTCGTCATTTCCGGAGTCACCTAGTGCAG” stands 9500 fluorescence intensity (a.u.); under “GTTAGTTTGGTTGGGTTGGTTGCCGTATGGATGAGGGAAGCGGAGTCACCTAGTGCAG”, 9350 fluorescence intensity (a.u.); under “GCGAACGCCTCTCGCGCGCGTGCTTACTGGTGACTGGTCCCGGAGTCACCTAGTGCAG”, 8200 fluorescence intensity (a.u.). Under “GTATTGGCTCCGTTCTCATCTCTAGTTCACACCGCCAATACGGAGTCACCTAGTGCAG” stands 9160 fluorescence intensity (a.u.); under “ATCACATTATCCGGCTGCCCACATATCCAATGTCTCAACCCGGAGTCACCTAGTGCAG”, 8160 fluorescence intensity (a.u.). With “ATGGGATCGGATTCATTTTTGTTTTTTCGCCCGGTTTTTTCGGAGTCACCTAGTGCAG” the figure was 14300 fluorescence intensity (a.u.); with “TACACGCTCATGTACCTGCCCCGCGCGCCGCTGGTCGCCGCGGAGTCACCTAGTGCAG”, 8530 fluorescence intensity (a.u.); with “ACTGGTATTTTGTGGTAGGTTCATTTCATATGCTCCGTACCGGAGTCACCTAGTGCAG”, 9100 fluorescence intensity (a.u.).

As to “GCTGCTCATGCTATTTGTTCCAGTTATTCCGTTCAACCGCCGGAGTCACCTAGTGCAG”, the binding signal is 11000 fluorescence intensity (a.u.). “CACCACCATGTCATGTGCCCGCCCACTACTACCACTTCGCCGGAGTCACCTAGTGCAG”: the binding signal was 9610 fluorescence intensity (a.u.). In the case of “TATGATTTGCGGTCATTGGCAAAGTTGACTTTATTACTAACGGAGTCACCTAGTGCAG”, the binding signal is 9210 fluorescence intensity (a.u.). Turning to “ACGTTAGCAGGTTCTCAACTTCTCATCTGCTTCTCTCTTTCGGAGTCACCTAGTGCAG”, the binding signal was 8400 fluorescence intensity (a.u.). In the case of “ACTCGCTTAGCAAAACTTGGGTCATCTTACCACGAACTTCCGGAGTCACCTAGTGCAG”, the binding signal was 8970 fluorescence intensity (a.u.). As for “CACCACCTCGCCTCGCCTCTGTATTTAATGGCGCGCCGCGCGGAGTCACCTAGTGCAG”, the binding signal is 8160 fluorescence intensity (a.u.). With “TGTGGGTGTGATTCGTGGGCTTCTTGGTGTCGGTGTGCCTCGGAGTCACCTAGTGCAG” the figure was 8140 fluorescence intensity (a.u.). As for “TTGCACTTATCTCTATGTCAAGCCGTCACATTTTCCAGACCGGAGTCACCTAGTGCAG”, the binding signal is 10300 fluorescence intensity (a.u.). For the sequence “TGCTGCCTGCGCCTGATTCTGACGATGTTACCGAAAGCTACGGAGTCACCTAGTGCAG”, the binding signal was 8330 fluorescence intensity (a.u.). Under “AGTTGTTGAGTTGGTGTCCTGTTCTTGGACGGACAAGGGTCGGAGTCACCTAGTGCAG” stands 9330 fluorescence intensity (a.u.); under “GTCTATGGTCACTGTTCTGGCTACCATGCATGCTCATGCTCGGAGTCACCTAGTGCAG”, 10200 fluorescence intensity (a.u.); under “ATGTTGCCCTACCACTCTCCTGACCATCGTTTTCTTTTCCCGGAGTCACCTAGTGCAG”, 13700 fluorescence intensity (a.u.). “CGCCCGCCGCCTCCGTCGTCCCCGACCTCTACCACGCCCTCGGAGTCACCTAGTGCAG”: the binding signal is 10500 fluorescence intensity (a.u.). With “TTATAGCTAGCTCTTACTTTATTGTACTGCGTTCTAGGGGCGGAGTCACCTAGTGCAG” the figure was 14000 fluorescence intensity (a.u.); with “TCCGCCGATCCCGCCGTCTCCGGCCATCTCCGCCGCCGGCCGGAGTCACCTAGTGCAG”, 9380 fluorescence intensity (a.u.); with “GTTGGGGTGGAGGGCTGCTCCAGGTGAGAGGGCTGGGCATCGGAGTCACCTAGTGCAG”, 9900 fluorescence intensity (a.u.). Under “ACTAGTATCCCATCCATTCTTGCCTTCGAACCTCCATATTCGGAGTCACCTAGTGCAG” stands 11400 fluorescence intensity (a.u.); under “CACTTTTTCTTACTTTTAATTTTTTTTAATCTTGCTTTTACGGAGTCACCTAGTGCAG”, 9580 fluorescence intensity (a.u.); under “AATTTGGGAGTGGGATGGTAATTGGGAAGTCATTGTATTTCGGAGTCACCTAGTGCAG”, 11900 fluorescence intensity (a.u.). Take “TTCTGATGCTATTTCCAGGCTCAAGCAGTGTGACACATCTCGGAGTCACCTAGTGCAG”: the binding signal is 9650 fluorescence intensity (a.u.).
